Source: article PMC10514999, “The PyPIF5-PymiR156a-PySPL9-PyMYB114/MYB10 module regulates light-induced anthocyanin biosynthesis in red pear”

Molecular target: T1, PyPIF5 (UniProt A0A5N5GDZ9)
T1 sequence (looked up, limits assumed): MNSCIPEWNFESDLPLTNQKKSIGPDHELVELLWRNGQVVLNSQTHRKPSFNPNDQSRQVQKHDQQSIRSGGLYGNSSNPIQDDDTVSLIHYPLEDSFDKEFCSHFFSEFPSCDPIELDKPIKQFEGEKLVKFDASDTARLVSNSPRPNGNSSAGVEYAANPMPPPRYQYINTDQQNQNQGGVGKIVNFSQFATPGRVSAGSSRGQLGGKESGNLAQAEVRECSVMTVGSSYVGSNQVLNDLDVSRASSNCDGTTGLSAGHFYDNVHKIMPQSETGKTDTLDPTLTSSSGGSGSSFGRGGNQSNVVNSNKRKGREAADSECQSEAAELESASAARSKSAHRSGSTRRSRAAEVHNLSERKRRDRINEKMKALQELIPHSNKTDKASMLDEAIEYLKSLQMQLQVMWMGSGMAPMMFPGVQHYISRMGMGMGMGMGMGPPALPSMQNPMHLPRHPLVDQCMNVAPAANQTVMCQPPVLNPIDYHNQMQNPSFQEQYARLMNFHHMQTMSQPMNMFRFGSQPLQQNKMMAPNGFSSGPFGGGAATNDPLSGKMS
Assay: EMSA
Settings: 20 nM probe, 500 ng protein; EMSA: 500 ng PyPIF5-His, 20 nM biotin probe, 20 uL with 4 uL 5x EMSA/Gel-Shift buffer (Beyotime GS009), 20 min, room temperature (~25 C); salt and pH not stated; recombinant protein; protein details: His (pColdTF vector); label: biotin

“TTGTAAAGAACACGTACGTTACACGTACGCTGAAACA / TGTTTCAGCGTAGTGTAACGTACGTGTTCTTTACAA [PymiR156a promoter G-box probe (Bio-probe)]”: binds.

Construct, isoform or probe ends are uncertain for at least one entry. Protein sequences can lack the tags named with them.
